Results are given in words; binding and its absence hold for the method and conditions named. In cells and extracts the contact can be indirect. Binding can be weak; no strength is given.
Molecular target: Flag-tagged zebrafish Pax1b (zebrafish) (UniProt B0S7C8)
Test: co-IP; HEK293FT cells co-transfected with Myc-tagged FOXO1 and a Flag-tagged Pax protein; lysate immunoprecipitated with anti-Flag M2 affinity resin, immunoblotted; also after CoCl2 (2, 20, 200, 400 umol/L, 14 h), which strengthened the PAX1-FOXO1 interaction

The chains behind the UniProt entries cited, without tags or fusion partners. Where a name states a change or a piece, a line headed by the entry shows the natural chain unless it says otherwise.
UniProt B0S7C8: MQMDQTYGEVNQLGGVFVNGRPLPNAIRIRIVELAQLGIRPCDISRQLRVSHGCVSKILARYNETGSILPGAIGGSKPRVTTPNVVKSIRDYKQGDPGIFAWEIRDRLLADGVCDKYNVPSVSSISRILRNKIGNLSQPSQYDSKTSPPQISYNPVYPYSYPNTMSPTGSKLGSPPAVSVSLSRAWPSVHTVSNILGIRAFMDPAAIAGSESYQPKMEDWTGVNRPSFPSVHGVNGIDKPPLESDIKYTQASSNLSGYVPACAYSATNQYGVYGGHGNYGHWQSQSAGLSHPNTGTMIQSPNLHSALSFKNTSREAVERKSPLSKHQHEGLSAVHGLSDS
UniProt Q12778: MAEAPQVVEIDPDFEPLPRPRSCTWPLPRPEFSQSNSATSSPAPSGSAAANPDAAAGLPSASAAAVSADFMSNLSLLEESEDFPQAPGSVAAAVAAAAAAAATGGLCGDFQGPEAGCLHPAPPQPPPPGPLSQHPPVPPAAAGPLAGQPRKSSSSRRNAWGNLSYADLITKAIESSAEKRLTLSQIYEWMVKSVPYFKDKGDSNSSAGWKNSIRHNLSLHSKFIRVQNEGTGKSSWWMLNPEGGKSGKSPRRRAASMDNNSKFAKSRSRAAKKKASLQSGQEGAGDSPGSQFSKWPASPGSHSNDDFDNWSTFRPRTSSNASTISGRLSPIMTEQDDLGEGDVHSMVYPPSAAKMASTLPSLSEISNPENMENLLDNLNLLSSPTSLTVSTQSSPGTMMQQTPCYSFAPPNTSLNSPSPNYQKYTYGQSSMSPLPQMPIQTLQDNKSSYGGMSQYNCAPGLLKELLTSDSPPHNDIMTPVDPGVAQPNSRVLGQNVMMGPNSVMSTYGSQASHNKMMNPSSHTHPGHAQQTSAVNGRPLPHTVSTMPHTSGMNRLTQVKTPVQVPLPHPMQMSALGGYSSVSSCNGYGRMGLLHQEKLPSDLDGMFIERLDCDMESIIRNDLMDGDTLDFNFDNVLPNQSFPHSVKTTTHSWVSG

binding: binds
Substance: Myc-tagged FOXO1 (from UniProt Q12778 1-655)
